Results are given in words; binding and its absence hold for the method and conditions named. Binding seen in cells or lysates may run through a third protein. These calls come from enrichment with a bait or labelling near it, and not all partners need be listed. Sequences can lack the tags named with a protein.
Molecular target: T1, 3xHA-TurboID-MARCHF8 fusion protein (human) (UniProt Q5T0T0)
T1 sequence: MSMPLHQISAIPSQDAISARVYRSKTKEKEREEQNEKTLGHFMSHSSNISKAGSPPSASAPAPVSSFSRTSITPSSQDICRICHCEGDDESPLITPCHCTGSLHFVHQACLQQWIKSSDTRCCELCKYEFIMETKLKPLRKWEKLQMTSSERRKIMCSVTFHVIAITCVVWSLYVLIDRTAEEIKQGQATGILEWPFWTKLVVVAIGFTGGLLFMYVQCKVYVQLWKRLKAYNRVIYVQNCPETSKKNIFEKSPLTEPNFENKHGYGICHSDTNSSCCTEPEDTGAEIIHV
Assay: proximity labelling

Amino acid sequences for entries named in this document (tags omitted). Residues count along the entry.
UniProt P16070, residues 21-742: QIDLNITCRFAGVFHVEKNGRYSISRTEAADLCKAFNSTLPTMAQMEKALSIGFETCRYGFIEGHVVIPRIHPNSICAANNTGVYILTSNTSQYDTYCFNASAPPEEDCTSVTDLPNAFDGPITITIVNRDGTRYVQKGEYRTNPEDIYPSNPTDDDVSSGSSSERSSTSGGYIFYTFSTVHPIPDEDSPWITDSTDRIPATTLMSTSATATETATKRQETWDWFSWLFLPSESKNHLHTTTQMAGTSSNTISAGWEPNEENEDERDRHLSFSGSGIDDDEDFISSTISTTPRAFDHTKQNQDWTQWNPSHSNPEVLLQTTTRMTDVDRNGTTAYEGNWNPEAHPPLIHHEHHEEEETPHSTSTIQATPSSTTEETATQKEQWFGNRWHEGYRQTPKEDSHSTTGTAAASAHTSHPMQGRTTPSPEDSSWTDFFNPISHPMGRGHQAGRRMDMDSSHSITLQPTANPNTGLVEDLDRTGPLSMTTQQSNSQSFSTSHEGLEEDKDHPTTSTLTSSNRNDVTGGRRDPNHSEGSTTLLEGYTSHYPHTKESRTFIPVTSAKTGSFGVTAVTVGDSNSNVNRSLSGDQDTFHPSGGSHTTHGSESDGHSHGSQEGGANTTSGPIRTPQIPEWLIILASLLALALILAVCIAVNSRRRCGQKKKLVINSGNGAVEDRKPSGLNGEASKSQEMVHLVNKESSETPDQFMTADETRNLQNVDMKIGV
UniProt O00220, residues 24-468: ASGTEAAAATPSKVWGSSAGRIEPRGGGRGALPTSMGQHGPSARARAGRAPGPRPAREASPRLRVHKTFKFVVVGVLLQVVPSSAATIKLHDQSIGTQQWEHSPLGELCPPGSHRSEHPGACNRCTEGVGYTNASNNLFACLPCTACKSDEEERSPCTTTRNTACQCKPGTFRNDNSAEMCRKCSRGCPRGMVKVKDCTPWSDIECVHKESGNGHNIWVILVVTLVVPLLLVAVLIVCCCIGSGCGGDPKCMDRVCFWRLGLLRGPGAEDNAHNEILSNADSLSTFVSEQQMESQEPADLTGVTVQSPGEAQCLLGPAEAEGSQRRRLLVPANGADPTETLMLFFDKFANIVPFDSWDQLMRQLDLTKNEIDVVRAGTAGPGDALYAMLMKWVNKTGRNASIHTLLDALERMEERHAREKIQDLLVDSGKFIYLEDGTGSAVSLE

binding | Substance
binds | CD44 (from UniProt P16070 21-742) (receptor)
binds | CDH1
binds | TNF-related apoptosis-inducing ligand receptor 1 (TRAIL-R1) (from UniProt O00220 24-468)

From article doi:10.1101/2024.11.29.626106
